Some of the results follow. Many values rest on one well or one pass, so single values are uncertain.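 Imaging used 1,536-well plates; nuclei positive for cleaved PARP by antibody were divided by total DNA-stained nuclei to yield the apoptosis fraction. Doses for screening kept most cells viable, and cell lines differ markedly in resting and induced cleaved-PARP levels.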
Tested on: WM3526
Assay: cleaved PARP positive nuclei fraction relative to DMSO control; melanoma cells; higher = more apoptosis
Settings: library dose: low library concentration; 72 h

Compound	cleaved PARP positive nuclei fraction
COc1cc(Nc2ncc(F)c(Nc3ccc4c(n3)NC(=O)C(C)(C)O4)n2)cc(OC)c1OC [Tamatinib] + O=C(Oc1ccc([N+](=O)[O-])cc1)N1CCC(C(O)(c2ccc3c(c2)OCO3)c2ccc3c(c2)OCO3)CC1 [JZL184] (first compound 0.4 µM, partner dose 1 µM)	77.6%
COc1cc2ncnc(Nc3ccc(Oc4ccccc4)cc3)c2cc1OC + O=C(Oc1ccc([N+](=O)[O-])cc1)N1CCC(C(O)(c2ccc3c(c2)OCO3)c2ccc3c(c2)OCO3)CC1 [JZL184] (first compound 2 µM, partner dose 1 µM)	68.3%
C/C(O)=C(\C#N)C(=O)Nc1cc(Br)ccc1Br + O=C(Oc1ccc([N+](=O)[O-])cc1)N1CCC(C(O)(c2ccc3c(c2)OCO3)c2ccc3c(c2)OCO3)CC1 [JZL184] (first compound 2 µM, partner dose 1 µM)	57.8%
C/C(O)=C(\C#N)C(=O)Nc1cc(Br)ccc1Br + CC(C)CCN1c2nc(Nc3cc(F)c(O)c(F)c3)ncc2N(C)C(=O)C1C [BID1870] (first compound 2 µM, partner dose 0.2 µM)	86.9%
N#Cc1c(O)c2c(-c3ccc(-c4ccccc4O)cc3)csc2[nH]c1=O + C/C(O)=C(\C#N)C(=O)Nc1cc(Br)ccc1Br [LFM-A13] (first compound 2 µM, partner dose 2 µM)	166%
C[C@]12O[C@H](C[C@]1(O)CO)n1c3ccccc3c3c4c(c5c6ccccc6n2c5c31)CNC4=O [Lestaurtinib] + C[C@@H]1CCN(C(=O)CC#N)C[C@@H]1N(C)c1ncnc2[nH]ccc12 [CP690550] (first compound 0.004 µM, partner dose 1 µM)	150%
Cc1ccc(NC(=O)c2cccc(N(C)C)c2)cc1NC(=O)c1ccc(O)cc1 + C/C(O)=C(\C#N)C(=O)Nc1cc(Br)ccc1Br [LFM-A13] (first compound 2 µM, partner dose 2 µM)	73.3%

Tested on: WM3619
Assay: as above
Settings: library dose: low library concentration; 72 h

Compound	cleaved PARP positive nuclei fraction
C[C@]12O[C@H](C[C@]1(O)CO)n1c3ccccc3c3c4c(c5c6ccccc6n2c5c31)CNC4=O [Lestaurtinib] + CCN(CC)CCCCNc1ncc2cc(-c3cc(OC)cc(OC)c3)c(NC(=O)NC(C)(C)C)nc2n1 [PD173074] (first compound 0.004 µM, partner dose 0.1 µM)	96.7%
N#Cc1c(O)c2c(-c3ccc(-c4ccccc4O)cc3)csc2[nH]c1=O + O=C(Oc1ccc([N+](=O)[O-])cc1)N1CCC(C(O)(c2ccc3c(c2)OCO3)c2ccc3c(c2)OCO3)CC1 [JZL184] (first compound 2 µM, partner dose 1 µM)	83.5%
C[C@]12O[C@H](C[C@]1(O)CO)n1c3ccccc3c3c4c(c5c6ccccc6n2c5c31)CNC4=O [Lestaurtinib] + O=c1cc(-c2cccc3c2Sc2ccccc2S3)oc(N2CCOCC2)c1 [KU55933] (first compound 0.004 µM, partner dose 1 µM)	85.9%
CCc1ccc(CCOc2ccc(CC3SC(=O)NC3=O)cc2)nc1 (stereo unspecified) [pioglitazone] + O=C(Oc1ccc([N+](=O)[O-])cc1)N1CCC(C(O)(c2ccc3c(c2)OCO3)c2ccc3c(c2)OCO3)CC1 [JZL184] (first compound 2 µM, partner dose 1 µM)	97.1%
COc1cc2c(Oc3ccc4[nH]c(C)cc4c3F)ncnc2cc1OCCCN1CCCC1 [cediranib] + Cc1cc(SCc2sc(-c3ccc(C(F)(F)F)c(F)c3)nc2C)ccc1OCC(=O)O [GW0742] (first compound 0.4 µM, partner dose 2 µM)	81.7%
Cc1cc(SCc2sc(-c3ccc(C(F)(F)F)c(F)c3)nc2C)ccc1OCC(=O)O + O=C(Oc1ccc([N+](=O)[O-])cc1)N1CCC(C(O)(c2ccc3c(c2)OCO3)c2ccc3c(c2)OCO3)CC1 [JZL184] (first compound 2 µM, partner dose 1 µM)	165%
Cc1cc(SCc2sc(-c3ccc(C(F)(F)F)c(F)c3)nc2C)ccc1OCC(=O)O + COc1cc(N2CCC(N3CCN(C)CC3)CC2)ccc1Nc1ncc(Cl)c(Nc2ccccc2S(=O)(=O)C(C)C)n1 [NVP-TAE684] (first compound 2 µM, partner dose 0.08 µM)	91%
C[C@]12O[C@H](C[C@]1(O)CO)n1c3ccccc3c3c4c(c5c6ccccc6n2c5c31)CNC4=O [Lestaurtinib] + COC(=O)c1sccc1S(=O)(=O)Nc1ccc(Nc2ccccc2)cc1OC [GSK0660] (first compound 0.004 µM, partner dose 1 µM)	76.2%
C[C@]12O[C@H](C[C@]1(O)CO)n1c3ccccc3c3c4c(c5c6ccccc6n2c5c31)CNC4=O [Lestaurtinib] + CC1(C)NC(=O)N(c2ccc([N+](=O)[O-])c(C(F)(F)F)c2)C1=O [nilutamide] (first compound 0.004 µM, partner dose 1 µM)	83.2%
O=C1NC(=O)/C(=C/c2ccc(-c3ccc(F)cc3O)o2)S1 + O=C(Oc1ccc([N+](=O)[O-])cc1)N1CCC(C(O)(c2ccc3c(c2)OCO3)c2ccc3c(c2)OCO3)CC1 [JZL184] (first compound 1 µM, partner dose 1 µM)	70.2%
Oc1cc(-c2nc(-c3ccccc3)[nH]c2-c2ccncc2)ccc1Cl + O=C(Oc1ccc([N+](=O)[O-])cc1)N1CCC(C(O)(c2ccc3c(c2)OCO3)c2ccc3c(c2)OCO3)CC1 [JZL184] (first compound 0.2 µM, partner dose 1 µM)	74.4%
C[C@]12O[C@H](C[C@]1(O)CO)n1c3ccccc3c3c4c(c5c6ccccc6n2c5c31)CNC4=O [Lestaurtinib] + O=S(=O)(c1ccccc1)N(CC(F)(F)F)c1ccc(C(O)(C(F)(F)F)C(F)(F)F)cc1 [T0901317] (first compound 0.004 µM, partner dose 1.4 µM)	80.1%
NCC(=O)Nc1ccc(-n2nc(C(F)(F)F)cc2-c2ccc3c(ccc4ccccc43)c2)cc1 + O=C(Oc1ccc([N+](=O)[O-])cc1)N1CCC(C(O)(c2ccc3c(c2)OCO3)c2ccc3c(c2)OCO3)CC1 [JZL184] (first compound 1 µM, partner dose 1 µM)	84.7%
C[C@@H]1CCN(C(=O)CC#N)C[C@@H]1N(C)c1ncnc2[nH]ccc12 + C/C(O)=C(\C#N)C(=O)Nc1cc(Br)ccc1Br [LFM-A13] (first compound 1 µM, partner dose 2 µM)	90.5%
C[As](C)SC[C@H](NC(=O)CC[C@H](N)C(=O)O)C(=O)NCC(=O)O [Darinaparsin] + O=C(Nc1ccccc1)c1cc([N+](=O)[O-])ccc1Cl [GW9662] (first compound 0.4 µM, partner dose 2 µM)	106%
C[C@]12O[C@H](C[C@]1(O)CO)n1c3ccccc3c3c4c(c5c6ccccc6n2c5c31)CNC4=O [Lestaurtinib] + O=C(O)c1ccc(-c2c[nH]c3ncc(-c4ccccc4)cc23)cc1C1CCCC1 [GSK650394] (first compound 0.004 µM, partner dose 0.16 µM)	81.6%
C[C@]12O[C@H](C[C@]1(O)CO)n1c3ccccc3c3c4c(c5c6ccccc6n2c5c31)CNC4=O [Lestaurtinib] + Oc1cc(-c2nc(-c3ccccc3)[nH]c2-c2ccncc2)ccc1Cl [L779450] (first compound 0.004 µM, partner dose 0.2 µM)	84.5%
COc1ccc2c(c1)CCC1C2CCC2(C)C(NCCCCCCN3C(=O)C=CC3=O)CCC12 (stereo unspecified) + C/C(O)=C(\C#N)C(=O)Nc1cc(Br)ccc1Br [LFM-A13] (first compound 0.4 µM, partner dose 2 µM)	99.4%
Cc1cc(SCc2sc(-c3ccc(C(F)(F)F)c(F)c3)nc2C)ccc1OCC(=O)O + C/C(O)=C(\C#N)C(=O)Nc1cc(Br)ccc1Br [LFM-A13] (first compound 2 µM, partner dose 2 µM)	90.4%
COC(=O)c1sccc1S(=O)(=O)Nc1ccc(Nc2ccccc2)cc1OC + C/C(O)=C(\C#N)C(=O)Nc1cc(Br)ccc1Br [LFM-A13] (first compound 1 µM, partner dose 2 µM)	262%
O=C(O)c1ccc(-c2c[nH]c3ncc(-c4ccccc4)cc23)cc1C1CCCC1 + O=C(Oc1ccc([N+](=O)[O-])cc1)N1CCC(C(O)(c2ccc3c(c2)OCO3)c2ccc3c(c2)OCO3)CC1 [JZL184] (first compound 0.16 µM, partner dose 1 µM)	81.7%
C[C@@H]1CCN(C(=O)CC#N)C[C@@H]1N(C)c1ncnc2[nH]ccc12 + Cc1cc(SCc2sc(-c3ccc(C(F)(F)F)c(F)c3)nc2C)ccc1OCC(=O)O [GW0742] (first compound 1 µM, partner dose 2 µM)	79.9%
O=C(Nc1cccc(Cl)c1)Nc1ncc(CCNc2ncnc3ccsc23)s1 + Cc1cc(SCc2sc(-c3ccc(C(F)(F)F)c(F)c3)nc2C)ccc1OCC(=O)O [GW0742] (first compound 0.0008 µM, partner dose 2 µM)	87.9%
C[C@]12O[C@H](C[C@]1(O)CO)n1c3ccccc3c3c4c(c5c6ccccc6n2c5c31)CNC4=O [Lestaurtinib] + COc1cc2ncnc(Nc3ccc(Oc4ccccc4)cc3)c2cc1OC [SrcI1] (first compound 0.004 µM, partner dose 2 µM)	89.5%

Retrieved one by one from the entries so far, 2 records:
Compound	cleaved PARP positive nuclei fraction
C[C@]12O[C@H](C[C@]1(O)CO)n1c3ccccc3c3c4c(c5c6ccccc6n2c5c31)CNC4=O [Lestaurtinib] + CCN(CC)CCCCNc1ncc2cc(-c3cc(OC)cc(OC)c3)c(NC(=O)NC(C)(C)C)nc2n1 [PD173074] (first compound 0.004 µM, partner dose 0.1 µM)	96.7%
C[C@]12O[C@H](C[C@]1(O)CO)n1c3ccccc3c3c4c(c5c6ccccc6n2c5c31)CNC4=O [Lestaurtinib] + COc1cc2ncnc(Nc3ccc(Oc4ccccc4)cc3)c2cc1OC [SrcI1] (first compound 0.004 µM, partner dose 2 µM)	89.5%

Source: the supplement of paper PMC4604168 (melanoma cell lines)
